# Data published in PubChem BioAssay AID330 (DTP/NCI, 2004).
# The list shows only some results of the screen, not a fair sample: it is rich in T/C values a quarter to a half above the control, in often repeated tests (any T/C) and in doses without a T/C. Further doses and runs are listed elsewhere. T/C: endpoint of the treated group in % of that of the vehicle group. Some entries give survivors of the animals treated and no T/C: the source files T/C as zero there, which appears to mark a toxic dose or a test without result, not a measured value. Some survivor counts are full or nearly so, which does not show that the dose was tolerated: survival well below the control is almost never listed, so the zero probably covers shortened survival too. Survivors were counted at the toxicity check, usually on the fifth day, unless a day is given; later deaths do not show. Schedule codes are those of the source, read here as Q, the interval in days (D) or hours (H), X, the number of doses. Some entries hold several experiments; the values are given in rising order. Marks such as (2×) count equal records among those shown. Where survival is the endpoint, the PubChem record calls one and a half times the control and up active, and a quarter to a half above the control has no call in these data; cut-offs in other NCI protocols can differ. Some T/C values carry the count of animals alive at the toxicity check (mostly the fifth day); without a count, all were alive then.
# System: P388 leukemia ip, CD2F1 mice, survival T/C
# Assay: NCI In Vivo Anticancer Drug Screen. Data for tumor model P388 Leukemia (intraperitoneal) in CD2F1 (CDF1) mice
# Conditions: T/C endpoint: median survival time, higher T/C = longer survival
# [1] = dose: 100.0 mg/kg/injection, schedule: Q01DX009 (ip), vehicle: saline with Tween-80
# [2] = dose: 200.0 mg/kg/injection, schedule: Q01DX009 (ip), vehicle: saline with Tween-80
# [3] = dose: 100.0 mg/kg/injection, schedule: Q01DX009 (ip), vehicle: saline
# [4] = dose: 200.0 mg/kg/injection, schedule: Q01DX009 (ip), vehicle: saline
# [5] = dose: 240.0 mg/kg/injection, schedule: Q01DX005 (ip), vehicle: Klucel (hydroxypropylcellulose) (HPC)
# [6] = dose: 240.0 mg/kg/injection, schedule: Q01DX005 (ip), vehicle: saline with Tween-80
# [7] = dose: 200.0 mg/kg/injection, schedule: Q01DX009 (ip), vehicle: Klucel (hydroxypropylcellulose) (HPC)
# [8] = dose: 50.0 mg/kg/injection, schedule: Q01DX009 (ip), vehicle: saline
# [9] = dose: 200.0 mg/kg/injection, schedule: Q01DX005 (ip), vehicle: saline with Tween-80
# [10] = dose: 100.0 mg/kg/injection, schedule: Q04DX002 (ip), vehicle: saline with Tween-80
# [11] = dose: 50.0 mg/kg/injection, schedule: Q04DX003 (ip), vehicle: Klucel (hydroxypropylcellulose) (HPC)
# [12] = dose: 100.0 mg/kg/injection, schedule: Q04DX003 (ip), vehicle: Klucel (hydroxypropylcellulose) (HPC)
# [13] = dose: 200.0 mg/kg/injection, schedule: Q04DX003 (ip), vehicle: Klucel (hydroxypropylcellulose) (HPC)
# [14] = dose: 400.0 mg/kg/injection, schedule: Q04DX003 (ip), vehicle: Klucel (hydroxypropylcellulose) (HPC)
compound,measurement,setting,value
CCN(CC)CC(C)Nc1ccc([N+](=O)[O-])c2sc3ccccc3c(=O)c12 (stereo unspecified),T/C,"dose: 12.5 mg/kg/injection, schedule: Q01DX009 (ip), vehicle: saline",126 % of control
same,T/C,"dose: 25.0 mg/kg/injection, schedule: Q01DX009 (ip), vehicle: saline",147 % of control
same,T/C,"dose: 50.0 mg/kg/injection, schedule: Q04DX003 (ip), vehicle: saline with Tween-80",130 % of control
same,survivor count,[1],6 of 6
same,survivor count,[2],6 of 6
same,survivor count,"dose: 300.0 mg/kg/injection, schedule: Q04DX003 (ip), vehicle: saline with Tween-80",6 of 6
CC(=NC(C)(C)C)N1CCCCC1,survivor count,[3],5 of 6
same,survivor count,[4],0 of 6
COc1cc2c(cc1C(C)c1ccc(OCc3ccccc3)cc1)OCO2 (stereo unspecified),survivor count,"dose: 50.0 mg/kg/injection, schedule: Q01DX005 (ip), vehicle: distilled water + Tween-80",6 of 6
CC(=O)c1coc2c(c(C)nn2-c2ccccc2)c1=O,survivor count,"dose: 60.0 mg/kg/injection, schedule: Q01DX005 (ip), vehicle: Klucel (hydroxypropylcellulose) (HPC)",4 of 6
same,survivor count,"dose: 120.0 mg/kg/injection, schedule: Q01DX005 (ip), vehicle: Klucel (hydroxypropylcellulose) (HPC)",0 of 6
same,survivor count,[5],0 of 6
CN=C(NC(C)C)c1ccc(NC(=O)c2ccc(C(=O)Nc3ccc(C(=NC)NC(C)C)cc3)cc2)cc1,T/C,"dose: 16.0 mg/kg/injection, schedule: Q01DX009 (ip), vehicle: saline",140 % of control
same,T/C,"dose: 42.2 mg/kg/injection, schedule: Q04DX003 (ip), vehicle: saline with Tween-80",127 % of control
same,T/C,"dose: 64.0 mg/kg/injection, schedule: Q04DX003 (ip), vehicle: saline with Tween-80",136 % of control
Clc1ccc(Cc2nc3ccccc3s2)cc1,survivor count,[6],3 of 6
Cc1nc2sccn2c1C(N)=O,survivor count,[5],0 of 6
CC/C(=C/C(F)(F)C(F)(F)C(F)(F)F)[N+](=O)[O-],survivor count,[7],0 of 6
ClCCc1ccn[nH]1,survivor count,"dose: 400.0 mg/kg/injection, schedule: Q04DX002 (ip), vehicle: saline",6 of 6
CC1(C)CN(Cc2ccccc2)C1(C)C#N (stereo unspecified),survivor count,[6],1 of 6
COc1cc(/C=C2\SC(=S)N(C3CC3)C2=O)ccc1O,survivor count,[8],6 of 6
same,survivor count,[3],6 of 6
COc1ccc(C(=O)/C=C/c2c[nH]c3ccccc23)c(O)c1,survivor count,"dose: 60.0 mg/kg/injection, schedule: Q01DX005 (ip), vehicle: saline with Tween-80",6 of 6
CCOC(=O)Nc1nc2ccc([N+](=O)[O-])cc2s1,survivor count,"dose: 50.0 mg/kg/injection, schedule: Q01DX009 (ip), vehicle: Klucel (hydroxypropylcellulose) (HPC)",6 of 6
same,survivor count,"dose: 100.0 mg/kg/injection, schedule: Q01DX009 (ip), vehicle: Klucel (hydroxypropylcellulose) (HPC)",6 of 6
same,survivor count,[7],6 of 6
Cc1cc(Br)c2nsnc2c1[N+](=O)[O-],T/C,"dose: 100.0 mg/kg/injection, schedule: Q01DX005 (ip), vehicle: saline with Tween-80",125 % of control
same,T/C,[9],125 % of control
CC(=C\c1ccc(Cl)c(Cl)c1)/C(C)=N/NC(N)=Nc1ccccc1,survivor count,[10],1 of 6
CC(C)(Br)C(=O)/C=C/c1ccccc1,survivor count,[6],2 of 6
Cc1cc2c(cc1C)NC1=C(N2)OC(c2ccc3c(c2)OCO3)C1=O (stereo unspecified),survivor count,[5],2 of 6
c1ccc([C@H]2N[C@@H]2c2ccccn2)cc1,survivor count,[9],3 of 6
CNC(=O)OC/C=C/c1ccccc1,survivor count,"dose: 400.0 mg/kg/injection, schedule: Q01DX009 (ip), vehicle: saline with Tween-80",1 of 6
CC(N)(CCSCP(=O)(O)O)C(=O)O (stereo unspecified),survivor count,[6],6 of 6
O=C(O)CC1SC(c2ccccc2Cl)N(/N=C/c2ccccc2Cl)C1=O (stereo unspecified),survivor count,[1],6 of 6
same,survivor count,[2],6 of 6
CS(=O)(=O)OCc1ccc(COS(C)(=O)=O)cc1,T/C,"dose: 25.0 mg/kg/injection, schedule: Q04DX003 (ip), vehicle: Klucel (hydroxypropylcellulose) (HPC)",131 % of control
same,T/C,[11],"104, 116, 119 % of control"
same,survivor count,[11],6 of 6
same,T/C,[12],"107, 109, 114 % of control"
same,survivor count,[12],"2 of 6, 3 of 6, 6 of 6"
same,T/C,[13],97 and 121 % of control
same,survivor count,[13],"0 of 6, 1 of 6, 4 of 6"
same,T/C,[14],96 and 125 % of control
same,survivor count,[14],0 of 6 (2×)
same,survivor count,"dose: 600.0 mg/kg/injection, schedule: Q04DX003 (ip), vehicle: Klucel (hydroxypropylcellulose) (HPC)",0 of 6
O=S1(=O)C2CCC(Br)C1CCC2Br (stereo unspecified),survivor count,"dose: 6.25 mg/kg/injection, schedule: Q01DX005 (ip), vehicle: Klucel (hydroxypropylcellulose) (HPC)",0 of 5
same,survivor count,"dose: 12.5 mg/kg/injection, schedule: Q01DX005 (ip), vehicle: Klucel (hydroxypropylcellulose) (HPC)",4 of 6
same,survivor count,"dose: 25.0 mg/kg/injection, schedule: Q01DX005 (ip), vehicle: Klucel (hydroxypropylcellulose) (HPC)",1 of 6
same,survivor count,"dose: 50.0 mg/kg/injection, schedule: Q01DX005 (ip), vehicle: Klucel (hydroxypropylcellulose) (HPC)",0 of 6
same,survivor count,"dose: 100.0 mg/kg/injection, schedule: Q01DX005 (ip), vehicle: Klucel (hydroxypropylcellulose) (HPC)",0 of 6
same,survivor count,"dose: 200.0 mg/kg/injection, schedule: Q01DX005 (ip), vehicle: Klucel (hydroxypropylcellulose) (HPC)",0 of 6
CC1=Nc2ccccc2N(C)/C1=C/C1=CC(=O)c2ccccc2C1=O,survivor count,"dose: 400.0 mg/kg/injection, schedule: Q04DX003 (ip), vehicle: saline with Tween-80",1 of 6
Nc1ccc2nc3ccc(=O)cc-3n(-c3ccccc3)c2c1,T/C,"dose: 1.0 mg/kg/injection, schedule: Q01DX009 (ip), vehicle: saline",131 % of control
same,T/C,"dose: 2.5 mg/kg/injection, schedule: Q01DX009 (ip), vehicle: saline",130 and 144 % of control [5 of 6 alive]
same,T/C,"dose: 5.0 mg/kg/injection, schedule: Q01DX009 (ip), vehicle: saline",139 and 145 % of control
same,T/C,"dose: 10.0 mg/kg/injection, schedule: Q01DX009 (ip), vehicle: saline",140 % of control
CCOC(=O)C1=C(C)O/C(=C/c2cccc(Cl)c2)C1=O,T/C,[9],125 % of control
same,survivor count,"dose: 400.0 mg/kg/injection, schedule: Q01DX005 (ip), vehicle: saline with Tween-80",5 of 6
CCCCCCCCCC[CH2][Sn]([CH2]CCCCCCCCCC)([CH2]CCCCCCCCCC)[CH2]CCCCCCCCCC,survivor count,[8],6 of 6
same,survivor count,[3],6 of 6
same,survivor count,[4],6 of 6
O=C(O)c1ccc(N=Nc2ccc(N(CCCl)CCCl)cc2C(=O)O)cc1,T/C,"dose: 200.0 mg/kg/injection, schedule: Q01DX001 (ip), vehicle: Klucel (hydroxypropylcellulose) (HPC)",125 % of control
C1=NC2=C(CCc3ccccc32)C2=NCCN12,survivor count,[10],0 of 6
same,survivor count,"dose: 200.0 mg/kg/injection, schedule: Q04DX002 (ip), vehicle: saline with Tween-80",0 of 6
same,survivor count,"dose: 400.0 mg/kg/injection, schedule: Q04DX002 (ip), vehicle: saline with Tween-80",1 of 6
